From patent US9134318B2, “Detection of oxidized polypeptides” (Purdue Research Foundation, priority 2009, dated 2015)

tested on: carbonylated plasma proteins; assay: iTRAQ and MALDI/TOF/TOF quantitative comparison of avidin-selected carbonylated proteins, breast cancer patients vs controls (Table 8); design: species or system Homo sapiens; conditions: avidin-selected carbonylated protein in plasma, breast cancer patient vs matched control, iTRAQ; repeated lines of a protein = different donors; negative = lower in cancer

| Molecule | Breast cancer/control (fold change) |
| --- | --- |
| Kinesin-like motor protein C20orf23 (protein, UniProt Q96L93 1-1317, looked up, oxidized) Kinesin-like protein KIF16B: MASVKVAVRVRPMNRREKDLEAKFIIQMEKSKTTITNLKIPEGGTGDSGRERTKTFTYDFSFYSADTKSPDYVSQEMVFKTLGTDVVKSAFEGYNACVFAYGQTGSGKSYTMMGNSGDSGLIPRICEGLFSRINETTRWDEASFRTEVSYLEIYNERVRDLLRRKSSKTFNLRVREHPKEGPYVEDLSKHLVQNYGDVEELMDAGNINRTTAATGMNDVSSRSHAIFTIKFTQAKFDSEMPCETVSKIHLVDLAGSERADATGATGVRLKEGGNINKSLVTLGNVISALADLSQDAANTLAKKKQVFVPYRDSVLTWLLKDSLGGNSKTIMIATISPADVNYGETLSTLRYANRAKNIINKPTINEDANVKLIRELRAEIARLKTLLAQGNQIALLDSPTALSMEEKLQQNEARVQELTKEWTNKWNETQNILKEQTLALRKEGIGVVLDSELPHLIGIDDDLLSTGIILYHLKEGQTYVGRDDASTEQDIVLHGLDLESEHCIFENIGGTVTLIPLSGSQCSVNGVQIVEATHLNQGAVILLGRTNMFRFNHPKEAAKLREKRKSGLLSSFSLSMTDLSKSRENLSAVMLYNPGLEFERQQREELEKLESKRKLIEEMEEKQKSDKAELERMQQEVETQRKETEIVQLQIRKQEESLKRRSFHIENKLKDLLAEKEKFEEERLREQQEIELQKKRQEEETFLRVQEELQRLKELNNNEKAEKFQIFQELDQLQKEKDEQYAKLELEKKRLEEQEKEQVMLVAHLEEQLREKQEMIQLLRRGEVQWVEEEKRDLEGIRESLLRVKEARAGGDEDGEELEKAQLRFFEFKRRQLVKLVNLEKDLVQQKDILKKEVQEEQEILECLKCEHDKESRLLEKHDESVTDVTEVPQDFEKIKPVEYRLQYKERQLQYLLQNHLPTLLEEKQRAFEILDRGPLSLDNTLYQVEKEMEEKEEQLAQYQANANQLQKLQATFEFTANIARQEEKVRKKEKEILESREKQQREALERALARLERRHSALQRHSTLGMEIEEQRQKLASLNSGSREQSGLQASLEAEQEALEKDQERLEYEIQQLKQKIYEVDGVQKDHHGTLEGKVASSSLPVSAEKSHLVPLMDARINAYIEEEVQRRLQDLHRVISEGCSTSADTMKDNEKLHNGTIQRKLKYERMVSRSLGANPDDLKDPIKISIPRYVLCGQGKDAHFEFEVKITVLDETWTVFRRYSRFREMHKTLKLKYAELAALEFPPKKLFGNKDERVIAERRSHLEKYLRDFFSVMLQSATSPLHINKVGLTLSKHTICEFSPFFKKGVFDYSSHGTG | −2.3 fold change |
| Inter-alpha-trypsin inhibitor heavy chain H1 precursor (protein, UniProt P19827 35-672, looked up) Inter-alpha-trypsin inhibitor …: SKSSEKRQAVDTAVDGVFIRSLKVNCKVTSRFAHYVVTSQVVNTANEAREVAFDLEIPKTAFISDFAVTADGNAFIGDIKDKVTAWKQYRKAAISGENAGLVRASGRTMEQFTIHLTVNPQSKVTFQLTYEEVLKRNHMQYEIVIKVKPKQLVHHFEIDVDIFEPQGISKLDAQASFLPKELAAQTIKKSFSGKKGHVLFRPTVSQQQSCPTCSTSLLNGHFKVTYDVSRDKICDLLVANNHFAHFFAPQNLTNMNKNVVFVIDISGSMRGQKVKQTKEALLKILGDMQPGDYFDLVLFGTRVQSWKGSLVQASEANLQAAQDFVRGFSLDEATNLNGGLLRGIEILNQVQESLPELSNHASILIMLTDGDPTEGVTDRSQILKNVRNAIRGRFPLYNLGFGHNVDFNFLEVMSMENNGRAQRIYEDHDATQQLQGFYSQVAKPLLVDVDLQYPQDAVLALTQNHHKQYYEGSEIVVAGRIADNKQSSFKADVQAHGEGQEFSITCLVDEEEMKKLLRERGHMLENHVERLWAYLTIQELLAKRMKVDREERANLSSQALQMSLDYGFVTPLTSMSIRGMADQDGLKPTIDKPSEDSPPLEMLGPRRTFVLSALQPSPTHSSSNTQRLPDRVTGVDTD | −6.3 fold change |
| Kelch-like protein 4 (protein, UniProt Q9C0H6 1-718, looked up, oxidized) Kelch-like protein 4: MSVSGKKEFDVKQILRLRWRWFSHPFQGSTNTGSCLQQEGYEHRGTPVQGRLKSHSRDRNGLKKSNSPVHHNILAPVPGPAPAHQRAVQNLQQHNLIVHFQANEDTPKSVPEKNLFKEACEKRAQDLEMMADDNIEDSTARLDTQHSEDMNATRSEEQFHVINHAEQTLRKMENYLKEKQLCDVLLIAGHLRIPAHRLVLSAVSDYFAAMFTNDVLEAKQEEVRMEGVDPNALNSLVQYAYTGVLQLKEDTIESLLAAACLLQLTQVIDVCSNFLIKQLHPSNCLGIRSFGDAQGCTELLNVAHKYTMEHFIEVIKNQEFLLLPANEISKLLCSDDINVPDEETIFHALMQWVGHDVQNRQGELGMLLSYIRLPLLPPQLLADLETSSMFTGDLECQKLLMEAMKYHLLPERRSMMQSPRTKPRKSTVGALYAVGGMDAMKGTTTIEKYDLRTNSWLHIGTMNGRRLQFGVAVIDNKLYVVGGRDGLKTLNTVECFNPVGKIWTVMPPMSTHRHGLGVATLEGPMYAVGGHDGWSYLNTVERWDPEGRQWNYVASMSTPRSTVGVVALNNKLYAIGGRDGSSCLKSMEYFDPHTNKWSLCAPMSKRRGGVGVATYNGFLYVVGGHDAPASNHCSRLSDCVERYDPKGDSWSTVAPLSVPRDAVAVCPLGDKLYVVGGYDGHTYLNTVESYDAQRNEWKEEVPVNIGRAGACVVVVKLP | −3.5 fold change |
| Katanin p80 WD40-containing subunit B1 (protein, UniProt Q9BVA0 1-655, looked up) Katanin p80 WD40 …: MATPVVTKTAWKLQEIVAHASNVSSLVLGKASGRLLATGGDDCRVNLWSINKPNCIMSLTGHTSPVESVRLNTPEELIVAGSQSGSIRVWDLEAAKILRTLMGHKANICSLDFHPYGEFVASGSQDTNIKLWDIRRKGCVFRYRGHSQAVRCLRFSPDGKWLASAADDHTVKLWDLTAGKMMSEFPGHTGPVNVVEFHPNEYLLASGSSDRTIRFWDLEKFQVVSCIEGEPGPVRSVLFNPDGCCLYSGCQDSLRVYGWEPERCFDVVLVNWGKVADLAICNDQLIGVAFSQSNVSSYVVDLTRVTRTGTVARDPVQDHRPLAQPLPNPSAPLRRIYERPSTTCSKPQRVKQNSESERRSPSSEDDRDERESRAEIQNAEDYNEIFQPKNSISRTPPRRSEPFPAPPEDDAATAKEAAKPSPAMDVQFPVPNLEVLPRPPVVASTPAPKAEPAIIPATRNEPIGLKASDFLPAVKIPQQAELVDEDAMSQIRKGHDTMCVVLTSRHKNLDTVRAVWTMGDIKTSVDSAVAINDLSVVVDLLNIVNQKASLWKLDLCTTVLPQIEKLLQSKYESYVQTGCTSLKLILQRFLPLITDMLAAPPSVGVDISREERLHKCRLCYKQLKSISGLVKSKSGLSGRHGSTFRELHLLMASLD | −3.4 fold change |
